Drawing on publication PMC11423194, this text covers binding for 2 substances.

Results are given in words; binding and its absence hold for the method and conditions named. In cells and extracts the contact can be indirect. Some binding calls cover weakened binding; strength is not graded here.

Assay [1] deals with RCSA NanoBiT fusion (assay of Figure S3D) (Salmonella typhimurium) (UniProt P54698). As to the kind of experiment: split reporter; SmBiT and LgBiT fused to bait and prey; expressed in the strains; bioluminescence after addition of the substrate (Figure S3D).
Assay [2] deals with RCSA with a Myc-tag (RCSA-Myc) (Salmonella typhimurium) (UniProt P54698). As to the kind of experiment: co-IP; lysates (lysozyme, 1% Triton X-100, proteinase inhibitor) of strains carrying plasmids for RCSA-Myc, HTRA-His or both; overnight at 4 °C with protein A/G agarose beads and His-tag or Myc-tag antibodies; eluted with 0.1 M glycine pH 3.0; western blot. For orientation: A western blot detects proteins with antibodies after separation by electrophoresis.

On to “HTRA NanoBiT fusion (assay of Figure S3D) (from UniProt P26982 27-475) (enzyme)”, for which the binding result in assay [1] is recorded as “binds”.
As for “HTRA with a His-tag (HTRA-His) (from UniProt P26982 27-475) (enzyme)”, the binding entry in assay [2] is reported as “binds”.
